Laboratory results published in PubChem BioAssay AID256 (DTP/NCI, 2004).
The list does not hold the whole screen: it gathers tests that were run many times, whatever their T/C, doses with no T/C, and many T/C values between a quarter and a half above the control. Other doses and runs of a compound stand elsewhere. T/C gives the treated animals as a percentage of the vehicle group. Some doses have a count of surviving animals in place of a T/C: the source holds a T/C of zero for them, seemingly a mark for toxic or unscored doses. Some doses without a T/C left all or most animals alive at the check, yet need not have been tolerated: the source hardly ever lists a survival T/C far under the control, and the zero likely stands for such cases as well. Counts of survivors are from the toxicity check (mostly the fifth day) where no day follows; animals may have died later. Schedules are NCI's codes, taken here to give the interval after Q, in days (D) or hours (H), and the number of doses after X. For survival time, the PubChem record calls one and a half times the control and up active, and a quarter to a half above the control has no call in these data; cut-offs in other NCI protocols can differ. Some T/C values are followed by the survivors on the day toxicity was checked, most often the fifth; without a count, all were alive then. Some entries hold several experiments; their values stand side by side, smallest first.

Test system: CD2F1 mice, L1210 leukemia ip, survival T/C
Assay: NCI In Vivo Anticancer Drug Screen. Data for tumor model L1210 Leukemia (intraperitoneal) in CD2F1 (CDF1) mice
Details: higher T/C = longer survival
In short: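 Read-out first: treated-group measurement over vehicle-control measurement, expressed as a ratio. Animals bore a transplanted tumor line and were dosed with compound or vehicle.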

[1] = T/C endpoint: mean survival time, dose: 100.0 mg/kg/injection, schedule: Q04DX003 (ip), vehicle: saline with Tween-80
[2] = T/C endpoint: mean survival time, dose: 200.0 mg/kg/injection, schedule: Q04DX003 (ip), vehicle: saline with Tween-80
[3] = T/C endpoint: mean survival time, dose: 400.0 mg/kg/injection, schedule: Q04DX003 (ip), vehicle: saline with Tween-80

In the case of `CC12CCCCC1SC(F)(F)C2(F)F` (stereo not drawn), the survivor count [1] is reported as 6 of 6, the survivor count [2] is reported as 0 of 6 and the survivor count [3] is reported as 0 of 6.
`Nc1cc[c]([Hg][Cl])cc1` was tested, and the survivor count (T/C endpoint: mean survival time, dose: 100.0 mg/kg/injection, schedule: Q04DX003 (ip), vehicle: saline) was 0 of 6, the survivor count (T/C endpoint: mean survival time, dose: 200.0 mg/kg/injection, schedule: Q04DX003 (ip), vehicle: saline) was 0 of 6 and the survivor count (T/C endpoint: mean survival time, dose: 400.0 mg/kg/injection, schedule: Q04DX003 (ip), vehicle: saline) was 0 of 6.
With `CC(=O)OC1OC(=O)C(C)(C(C)=O)C1C` (stereo not drawn) the survivor count (T/C endpoint: median survival time, dose: 40.0 mg/kg/injection, schedule: Q01DX009 (ip), vehicle: distilled water + alcohol) was 3 of 6.
For `CCCC1=CC(C)(C)CC(C)=C1` (tested in a mixture with another compound), the survivor count [3] was 3 of 6.
In the case of `O=NN(CCCl)C(=O)Nc1ccccn1`, the survivor count (T/C endpoint: mean survival time, dose: 200.0 mg/kg/injection, schedule: Q01DX001 (ip), vehicle: other) is reported as 0 of 6 and the survivor count (T/C endpoint: mean survival time, dose: 400.0 mg/kg/injection, schedule: Q01DX001 (ip), vehicle: other) is reported as 0 of 6.
For `CCCCCCC[CH2][Sn][CH2]CCCCCCC.Nc1ncnc2c1ncn2C1OC(CO)C2[OH+][OH+]C21` (stereo not drawn), the survivor count (T/C endpoint: mean survival time, dose: 50.0 mg/kg/injection, schedule: Q01DX005 (ip), vehicle: other) was 5 of 6, the survivor count (T/C endpoint: mean survival time, dose: 100.0 mg/kg/injection, schedule: Q01DX005 (ip), vehicle: other) was 0 of 6 and the survivor count (T/C endpoint: mean survival time, dose: 200.0 mg/kg/injection, schedule: Q01DX005 (ip), vehicle: other) was 0 of 6.
In the case of `CCOC(=O)/C(N=Nc1ccc(O)cc1)=C(\C)O`, the survivor count (T/C endpoint: mean survival time, dose: 400.0 mg/kg/injection, schedule: Q04DX003 (ip), vehicle: acetone) is reported as 5 of 6.
`Cc1cc(N2CCC(N3CCCC3)CC2)nc(/N=C(\N)Nc2ccc(Cl)c(Cl)c2)n1` was tested, and the survivor count [1] was 5 of 6, the survivor count [2] was 1 of 6 and the survivor count [3] was 0 of 6.
With `O=C1C=C(NNc2ccccc2)CCC1` the survivor count (T/C endpoint: mean survival time, dose: 200.0 mg/kg/injection, schedule: Q01DX009 (ip), vehicle: saline with Tween-80) was 1 of 6.
In the case of `CO[C@@]12[C@@H]3N[C@@H]3CN1C1=C(C(=O)C(Nc3ccc(O)cc3C)=C(C)C1=O)[C@@H]2COC(N)=O`, the T/C (T/C endpoint: mean survival time, dose: 12.0 mg/kg/injection, schedule: Q01DX001 (ip), vehicle: water) is reported as 134 % of control and the T/C (T/C endpoint: mean survival time, dose: 24.0 mg/kg/injection, schedule: Q01DX001 (ip), vehicle: water) is reported as 128 and 137 % of control [5 of 6 alive].
In the case of `N#CC(=N)N1CCN(C(=N)C#N)CC1`, the survivor count (T/C endpoint: mean survival time, dose: 100.0 mg/kg/injection, schedule: Q04DX002 (ip), vehicle: saline with Tween-80) is reported as 0 of 3, the survivor count (T/C endpoint: mean survival time, dose: 200.0 mg/kg/injection, schedule: Q01DX001 (ip), vehicle: saline) is reported as 0 of 6 and the survivor count (T/C endpoint: mean survival time, dose: 400.0 mg/kg/injection, schedule: Q01DX001 (ip), vehicle: saline) is reported as 0 of 6.
In the case of `ON=c1c2ccccc2oc2ccccc12`, the survivor count (T/C endpoint: mean survival time, dose: 400.0 mg/kg/injection, schedule: Q04DX002 (ip), vehicle: Klucel (hydroxypropylcellulose) (HPC)) is reported as 1 of 3.
In the case of `COc1ccc2c(c1)C/C(=N\O)C2=O`, the survivor count (T/C endpoint: mean survival time, dose: 100.0 mg/kg/injection, schedule: Q01DX009 (ip), vehicle: saline with Tween-80) is reported as 5 of 6.
In the case of `CC12CCC(=O)C=C1CCCC2O` (stereo not drawn), the survivor count (T/C endpoint: mean survival time, dose: 400.0 mg/kg/injection, schedule: Q04DX003 (ip), vehicle: saline sonified) is reported as 5 of 6.
`CSc1nnc(Sc2ccccc2)c(SC)n1` was tested, and the survivor count (T/C endpoint: mean survival time, dose: 300.0 mg/kg/injection, schedule: Q01DX001 (ip), vehicle: saline) was 3 of 6.
In the case of `CC(=O)OC1(C)CC(C)(C)N=[N+]1[O-]` (stereo not drawn), the survivor count (T/C endpoint: mean survival time, dose: 400.0 mg/kg/injection, schedule: Q01DX009 (ip), vehicle: Klucel (hydroxypropylcellulose) (HPC)) is reported as 0 of 3.
`C=C(NC(=O)C(=C)NC(=O)c1csc(C2=NC3c4csc(n4)C4NC(=O)c5csc(n5)C(C(C)(O)C(C)O)NC(=O)C5CSC(=N5)/C(=C/C)NC(=O)C(C(C)O)NC(=O)c5csc(n5)C3(CC2)NC(=O)C(C)NC(=O)C(=C)NC(=O)C(=C)NC(=O)C(C(C)C)NC2C=Cc3c(C(C)O)cc(nc3C2O)C(=O)OC4C)n1)C(N)=O` (stereo not drawn) was tested, and the T/C (T/C endpoint: mean survival time, dose: 25.0 mg/kg/injection, schedule: Q01DX009 (ip), vehicle: saline) was 125 % of control, the T/C (T/C endpoint: mean survival time, dose: 50.0 mg/kg/injection, schedule: Q01DX009 (ip), vehicle: saline) was 131 % of control and the T/C (T/C endpoint: mean survival time, dose: 100.0 mg/kg/injection, schedule: Q01DX009 (ip), vehicle: saline) was 137 % of control.
With `OC1CCC(CC2CCCCC2)CC1` (stereo not drawn) the survivor count (T/C endpoint: mean survival time, dose: 400.0 mg/kg/injection, schedule: Q01DX009 (ip), vehicle: saline with Tween-80) was 0 of 6.
`[Cl][Pt+2]([Cl])([Cl])[Cl].[NH-]Cc1ccccc1C[NH-]` was tested, and the survivor count (T/C endpoint: mean survival time, dose: 80.0 mg/kg/injection, schedule: Q04DX003 (ip), vehicle: saline with Tween-80) was 4 of 6.
